{"source": "PubChem BioAssay AID602196 | INSERM | 2012", "aim": "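Knock-downs that protect lung cancer cells from cisplatin or sensitise them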", "cell system": "human A549 lung cancer cells", "knock-down reagent": "siRNA pair against human genes", "time to read-out": "48 h transfection before cisplatin; time from cisplatin to read-out not stated", "conditions": "cisplatin at a dose killing half of control-siRNA cells; exact dose and duration not given", "detection": "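Shift in cisplatin death relative to control siRNA, from -50 (all cells die) to +50 (no cells die); siRNAs harmful on their own scored 0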", "direction": "two-siRNA summed score (-2 to +2): higher = both siRNAs protect from cisplatin killing; -2 means both sensitise; mean protection from cisplatin (shift in death): higher = protection from cisplatin killing", "rule for the call": "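siRNAs harmful alone (LDH or WST-1) get 0; others get +1 for less and -1 for more cisplatin killing; genes are active when the two siRNAs give the same sign, summing to ±2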", "calls": "active = both siRNAs shift cisplatin killing the same way; inactive = no consistent shift, or siRNA harmful alone", "note": "Here is an unselected part of about 23,000 reagents tested. 455 of all reagents (2%) count as active. 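Active includes both protection and sensitisation; some change values fall well beyond the stated -50 to +50 range.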 Further read-outs or replicates are left out here. Not given: the amount of reagent."}
{"gene symbol": "PSMC3", "two-siRNA summed score (-2 to +2)": 1, "mean protection from cisplatin (shift in death) (%)": 16.2, "activity call": "inactive"}
{"gene symbol": "FLJ36749", "two-siRNA summed score (-2 to +2)": 1, "mean protection from cisplatin (shift in death) (%)": 7.6, "activity call": "inactive"}
{"gene symbol": "TRAFD1", "two-siRNA summed score (-2 to +2)": 1, "mean protection from cisplatin (shift in death) (%)": 8.5, "activity call": "inactive"}
{"gene symbol": "KRTCAP3", "two-siRNA summed score (-2 to +2)": 0, "mean protection from cisplatin (shift in death) (%)": 3.6, "activity call": "inactive"}
{"gene symbol": "CRKL", "two-siRNA summed score (-2 to +2)": 1, "mean protection from cisplatin (shift in death) (%)": 9.4, "activity call": "inactive"}
{"gene symbol": "TOB2", "two-siRNA summed score (-2 to +2)": 2, "mean protection from cisplatin (shift in death) (%)": 21.5, "activity call": "active"}
{"gene symbol": "SYCP1", "two-siRNA summed score (-2 to +2)": 0, "mean protection from cisplatin (shift in death) (%)": 7.3, "activity call": "inactive"}
{"gene symbol": "CDH22", "two-siRNA summed score (-2 to +2)": -1, "mean protection from cisplatin (shift in death) (%)": -8.9, "activity call": "inactive"}
{"gene symbol": "GET4", "two-siRNA summed score (-2 to +2)": 0, "mean protection from cisplatin (shift in death) (%)": 1.8, "activity call": "inactive"}
{"gene symbol": "LOC388628", "two-siRNA summed score (-2 to +2)": 1, "mean protection from cisplatin (shift in death) (%)": 6.8, "activity call": "inactive"}
{"gene symbol": "ZRSR2", "two-siRNA summed score (-2 to +2)": 0, "mean protection from cisplatin (shift in death) (%)": 2.2, "activity call": "inactive"}
{"gene symbol": "HBB", "two-siRNA summed score (-2 to +2)": 0, "mean protection from cisplatin (shift in death) (%)": 3.9, "activity call": "inactive"}
{"gene symbol": "CATSPER2", "two-siRNA summed score (-2 to +2)": 0, "mean protection from cisplatin (shift in death) (%)": -1.1, "activity call": "inactive"}
{"gene symbol": "SLC9A3", "two-siRNA summed score (-2 to +2)": 0, "mean protection from cisplatin (shift in death) (%)": 3.3, "activity call": "inactive"}
{"gene symbol": "BRWD1", "two-siRNA summed score (-2 to +2)": 0, "mean protection from cisplatin (shift in death) (%)": 5.3, "activity call": "inactive"}
{"gene symbol": "SLC6A5", "two-siRNA summed score (-2 to +2)": -1, "mean protection from cisplatin (shift in death) (%)": 6.2, "activity call": "inactive"}
{"gene symbol": "LOC390020", "two-siRNA summed score (-2 to +2)": 0, "mean protection from cisplatin (shift in death) (%)": 6, "activity call": "inactive"}
{"gene symbol": "LOC441706", "two-siRNA summed score (-2 to +2)": 0, "mean protection from cisplatin (shift in death) (%)": 5.6, "activity call": "inactive"}
{"gene symbol": "ZNF613", "two-siRNA summed score (-2 to +2)": 0, "mean protection from cisplatin (shift in death) (%)": -1.2, "activity call": "inactive"}
{"gene symbol": "UBE2O", "two-siRNA summed score (-2 to +2)": 0, "mean protection from cisplatin (shift in death) (%)": 10.1, "activity call": "inactive"}
{"gene symbol": "ZNF536", "two-siRNA summed score (-2 to +2)": 0, "mean protection from cisplatin (shift in death) (%)": -1.7, "activity call": "inactive"}
{"gene symbol": "METTL13", "two-siRNA summed score (-2 to +2)": 0, "mean protection from cisplatin (shift in death) (%)": -7.7, "activity call": "inactive"}
{"gene symbol": "C17orf75", "two-siRNA summed score (-2 to +2)": 1, "mean protection from cisplatin (shift in death) (%)": 14.4, "activity call": "inactive"}
{"gene symbol": "HORMAD1", "two-siRNA summed score (-2 to +2)": 0, "mean protection from cisplatin (shift in death) (%)": 2, "activity call": "inactive"}
{"gene symbol": "PFDN5", "two-siRNA summed score (-2 to +2)": 0, "mean protection from cisplatin (shift in death) (%)": -12.6, "activity call": "inactive"}
{"gene symbol": "OR6C3", "two-siRNA summed score (-2 to +2)": 1, "mean protection from cisplatin (shift in death) (%)": 10.5, "activity call": "inactive"}
{"gene symbol": "RASSF9", "two-siRNA summed score (-2 to +2)": -1, "mean protection from cisplatin (shift in death) (%)": -9.9, "activity call": "inactive"}
{"gene symbol": "SYNJ2BP", "two-siRNA summed score (-2 to +2)": 0, "mean protection from cisplatin (shift in death) (%)": 2.9, "activity call": "inactive"}
{"gene symbol": "BCAS1", "two-siRNA summed score (-2 to +2)": 0, "mean protection from cisplatin (shift in death) (%)": 7, "activity call": "inactive"}
{"gene symbol": "ASGR1", "two-siRNA summed score (-2 to +2)": 0, "mean protection from cisplatin (shift in death) (%)": 23, "activity call": "inactive"}
{"gene symbol": "SYT7", "two-siRNA summed score (-2 to +2)": 1, "mean protection from cisplatin (shift in death) (%)": 8.3, "activity call": "inactive"}
